Results published in publication PMC11191317, “PNSC928, a plant-derived compound, specifically disrupts CtBP2-p300 interaction and reduces inflammation in mice with acute respiratory distress syndrome” (Biology Direct, 2024).
These are yes or no findings as the source states them, for the method shown. For some of these results: Binding seen in cells or lysates may run through a third protein. Some binding calls cover weakened binding; strength is not graded here. One block for each substance: values may come before it.

The chains behind the UniProt entries cited, without tags or fusion partners. Where a name states a change or a piece, a line headed by the entry shows the natural chain unless it says otherwise. Residues count along the entry.
UniProt P56546: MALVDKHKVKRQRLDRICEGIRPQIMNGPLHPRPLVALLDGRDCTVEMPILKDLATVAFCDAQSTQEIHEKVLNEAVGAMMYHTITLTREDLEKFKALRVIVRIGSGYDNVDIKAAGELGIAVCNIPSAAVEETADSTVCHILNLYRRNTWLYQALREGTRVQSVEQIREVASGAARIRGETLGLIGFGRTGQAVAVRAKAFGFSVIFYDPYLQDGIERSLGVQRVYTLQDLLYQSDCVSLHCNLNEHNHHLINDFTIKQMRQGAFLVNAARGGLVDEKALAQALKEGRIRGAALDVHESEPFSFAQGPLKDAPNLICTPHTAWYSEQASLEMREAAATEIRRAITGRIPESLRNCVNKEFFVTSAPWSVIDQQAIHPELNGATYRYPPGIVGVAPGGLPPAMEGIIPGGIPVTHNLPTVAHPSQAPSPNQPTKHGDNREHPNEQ
UniProt B2RWS6, residues 1001-1201: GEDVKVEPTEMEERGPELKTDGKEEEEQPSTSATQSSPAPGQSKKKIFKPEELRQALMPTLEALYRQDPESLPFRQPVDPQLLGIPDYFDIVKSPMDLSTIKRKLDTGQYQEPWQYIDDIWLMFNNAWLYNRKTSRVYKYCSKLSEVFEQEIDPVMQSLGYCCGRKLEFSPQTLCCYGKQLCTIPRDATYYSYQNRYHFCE
UniProt P25799: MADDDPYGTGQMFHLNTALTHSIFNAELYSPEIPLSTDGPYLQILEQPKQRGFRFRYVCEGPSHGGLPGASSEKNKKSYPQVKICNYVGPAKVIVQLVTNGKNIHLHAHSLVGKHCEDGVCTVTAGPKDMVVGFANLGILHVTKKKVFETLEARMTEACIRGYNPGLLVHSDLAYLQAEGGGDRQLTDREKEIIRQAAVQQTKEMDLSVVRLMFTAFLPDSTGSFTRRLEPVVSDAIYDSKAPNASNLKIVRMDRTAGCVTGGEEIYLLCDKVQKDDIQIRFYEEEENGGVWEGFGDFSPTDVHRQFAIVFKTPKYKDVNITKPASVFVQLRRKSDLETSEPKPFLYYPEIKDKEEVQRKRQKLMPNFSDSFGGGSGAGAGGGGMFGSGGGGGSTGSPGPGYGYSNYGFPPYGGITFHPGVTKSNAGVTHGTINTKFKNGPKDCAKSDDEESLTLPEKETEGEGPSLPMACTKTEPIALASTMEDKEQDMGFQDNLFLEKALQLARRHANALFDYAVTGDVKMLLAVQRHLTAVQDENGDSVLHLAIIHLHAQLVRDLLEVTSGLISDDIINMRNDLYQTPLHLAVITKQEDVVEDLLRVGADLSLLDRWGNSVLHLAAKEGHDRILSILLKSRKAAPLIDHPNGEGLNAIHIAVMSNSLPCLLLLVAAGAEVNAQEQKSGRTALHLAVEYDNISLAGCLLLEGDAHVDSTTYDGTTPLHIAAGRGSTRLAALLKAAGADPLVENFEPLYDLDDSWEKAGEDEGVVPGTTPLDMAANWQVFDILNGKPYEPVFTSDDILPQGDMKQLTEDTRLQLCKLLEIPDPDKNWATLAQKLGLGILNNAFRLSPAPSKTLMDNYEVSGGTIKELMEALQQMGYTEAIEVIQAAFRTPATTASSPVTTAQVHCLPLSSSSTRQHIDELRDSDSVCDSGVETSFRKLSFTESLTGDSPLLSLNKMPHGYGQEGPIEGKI

Key:
[1] = target: His-CtBP2 (UniProt P56546); assay: pull-down; 80 nM GST-p300^BRD and 40 nM His-CtBP2 with PNSC928 (0, 11.8, 23.6, 47.2 µM); pulldown with Ni-NTA beads; both purified
[2] = target: GST-p300^BRD (UniProt B2RWS6); assay: pull-down; 80 nM GST-p300^BRD and 40 nM His-CtBP2 with PNSC928 (0, 11.8, 23.6, 47.2 µM); pulldown with GST beads; both purified
[3] = target: C-terminal binding protein 2 (CtBP2), endogenous mouse (mouse (endogenous in C57BL/6 lung and MPAEpiC cells)) (UniProt P56546); assay: co-IP; nuclear fractions of lung tissue from control and LPS-challenged ARDS mice; anti-CtBP2 antibody, protein A agarose beads, 4 °C; washes with 150 mM NaCl, 1% Triton X-100; Western blot
[4] = target: CtBP2, Flag- or Myc-tagged, transfected in MPAEpiC cells (UniProt P56546); assay: co-IP; combinations of plasmids cotransfected into MPAEpiC cells, 48 h; lysates immunoprecipitated with anti-Flag agarose; blots with anti-Flag and anti-Myc

binding [1]: binds
Substance: GST-p300^BRD (from UniProt B2RWS6 1001-1201) (domain or fragment)

binding [2]: binds
Substance: His-CtBP2 (from UniProt P56546 1-445)

binding [3]: binds
Substance: nuclear factor kappa B (NF-κB), subunits p50 and p65, endogenous mouse (from UniProt P25799 1-431; Q04207 1-549) (complex)

binding [4]: binds
Substance: p300 region R2 (1001–1201 aa), Flag- or Myc-tagged, transfected in MPAEpiC cells (from UniProt B2RWS6 1001-1201) (domain or fragment)
